In PubChem BioAssay AID1347076 (National Center for Advancing Translational Sciences (NCATS), 2019):
Screen size: about 400,000 compounds; about 13,000 (3.2%) were called active. This list was built around the results that the source calls inconclusive (neither active nor inactive); the mix of calls is not that of the screen. Calls follow the shape of the dose curve; as a rule, active = well fitted cell-killing curve with a large enough effect; inconclusive = small, poorly fitted or top-dose-only effect, or effect the other way; inactive = flat fitted curve, though single readings scatter. Potencies beside an inconclusive call are fits to weak or partial responses and may not hold up.

Test: qHTS assay for MDR1-selective chemotherapeutics: Primary screen using the drug-selected MDR subline cells KB-V1; also: nearly all actives have a fitted effect of over 60% in size
Conditions: KB-V1 MDR cells viability, CellTiter-Glo, 72 h; series mostly up to 46.1 µM
Procedure, shortened: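 Drug-selected KB-V1 cells, grown in DMEM lacking phenol red with 10% FBS, receive compound titrations; after three days at 37 degrees C, surviving cell ATP is quantified by CellTiter-Glo luminescence and responses normalized and curve-fitted.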
Potency is read from the fitted curve at half-maximal effect.

SMILES | Potency
NC(=O)C1CCN(C(=O)c2ccc3c(=O)n(Cc4ccco4)c(SCc4ccc([N+](=O)[O-])cc4)nc3c2)CC1 | inactive
CCOc1ccc(N2Cc3ccccc3C2)cc1 | inconclusive: 7.31 µM [cytotoxic, partial curve]
CCOC(=O)c1cc(NC(=O)c2ccccc2)c(=O)n2c1oc1ccccc12 | inactive
OCCCNc1nc(-c2ccccc2)nc2c1oc1ccccc12 | inconclusive: 23.1 µM [cytotoxic, single point]
CCc1cccc(CN2CCC(CNC(=O)Nc3ccc(Cl)cc3)CC2)c1 | inconclusive: 9.2 µM [cytotoxic, partial curve, poor fit]
COc1cc2c(cc1OC)CN(c1ccc(-c3ccccc3OC)nn1)CC2 | inconclusive: 20.6 µM [cytotoxic, partial curve]
COc1ccc(CCNS(=O)(=O)c2cc(-c3cc(C)no3)ccc2C)cc1OC | inactive
COc1ccccc1C(=O)NCCC(=O)N(Cc1ccco1)Cc1cccs1 | inconclusive: 7.31 µM [cytotoxic, partial curve, poor fit]
CCn1cc2nc(SCc3cccc(Cl)c3)n(Cc3ccc(C)cc3)c(=O)c2n1 | inactive
CCN(CC(=O)Nc1cc(Cl)ccc1Cl)C(=O)c1ccc(-n2cccn2)cc1 | inactive
CN(C)CCn1c(SCc2ccccc2C#N)nc2c(sc3ccccc32)c1=O | inactive
O=C(Nc1cccc(C(F)(F)F)c1)C1CCCN1S(=O)(=O)c1cccc2nsnc12 (stereo not given) | active: 7.31 µM
O=C(c1cccn(Cc2ccc(C(F)(F)F)cc2)c1=O)N1CCOCC1 | inactive
Cc1cc(C)cc(OC(C)C(=O)Nc2c(C(=O)c3ccccc3)oc3ccccc23)c1 (stereo not given) | inactive
CCOC(=O)C1=C(CC)Nc2ccccc2N=C1NC(=O)CCN1C(=O)C2CCCCC2C1=O (stereo not given) | inconclusive: 18.4 µM [cytotoxic, single point]
Cc1ccc(N(C(=O)c2csnn2)C(C(=O)NCc2ccccc2)c2cccnc2)cc1 (stereo not given) | inconclusive: 14.6 µM [cytotoxic, partial curve]
Cc1ccc(Nc2nc(N)c([N+](=O)[O-])c(NCCO)n2)cc1C | inconclusive: 13 µM [cytotoxic, partial curve, poor fit]
COC(=O)Cn1cnc2c(C#N)c3n(c2c1=O)CCCCC3 | inconclusive: 16.4 µM [cytotoxic, partial curve, poor fit]
Cc1cc(Nc2ccc(Cl)cc2)nc(NCc2ccccc2)n1 | active: 20.6 µM
CSc1ccc(C2NC(=O)c3ccccc3N2)cc1 (stereo not given) | inconclusive: 13 µM [cytotoxic, partial curve, poor fit]

Rewritten field by field: 2 of the compounds above
CCN(CC(=O)Nc1cc(Cl)ccc1Cl)C(=O)c1ccc(-n2cccn2)cc1
  Potency: inactive
Cc1cc(Nc2ccc(Cl)cc2)nc(NCc2ccccc2)n1
  Potency: active: 20.6 µM
